Experimental data: paper PMC5428041, “Dynamic equilibrium on DNA defines transcriptional regulation of a multidrug binding transcriptional repressor, LmrR” (Scientific Reports, 2017)

Amino acid sequences for entries named in this document (tags omitted). A change or cut given only in a name is not applied to a line headed by its entry.
UniProt A2RI36, entry or part of it: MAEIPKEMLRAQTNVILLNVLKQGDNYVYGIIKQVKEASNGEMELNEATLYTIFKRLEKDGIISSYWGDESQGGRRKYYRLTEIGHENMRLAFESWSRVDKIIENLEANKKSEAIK

Tests used:
[1] = molecular target: LmrR (Lactococcus lactis) (UniProt A2RI36); assay: NMR competition; details: out-competed by the PadR-consensus operator (48 uM in the reference complex), 30 uM LmrR dimer; 10 mM NaPi pH 6.8, 100 mM NaCl, 25 C (ITC; same buffer for NMR); 5% DMSO in riboflavin titrations; recombinant protein; protein details: C-terminal His6
[2] = molecular target: LmrR L17A (Lactococcus lactis) (UniProt A2RI36); assay: ITC?; details: relative to wild type, value only in figure; 10 mM NaPi pH 6.8, 100 mM NaCl, 25 C (ITC; same buffer for NMR); 5% DMSO in riboflavin titrations; recombinant protein; protein details: C-terminal His6
[3] = molecular target: LmrR G85A (Lactococcus lactis) (UniProt A2RI36); assay: ITC?; details: relative to wild type, value only in figure; 10 mM NaPi pH 6.8, 100 mM NaCl, 25 C (ITC; same buffer for NMR); 5% DMSO in riboflavin titrations; recombinant protein; protein details: C-terminal His6
[4] = molecular target: LmrR (Lactococcus lactis) (UniProt A2RI36); assay: ITC; details: 10 mM NaPi pH 6.8, 100 mM NaCl, 25 C (ITC; same buffer for NMR), 5% DMSO in riboflavin titrations, recombinant protein, protein details: C-terminal His6

Sequence: GCTTGTTTACTAAAAAAAATAATGTTATAATTATC (double strand) [-10/-35 lmrCD promoter 35 bp]
- binding result [1]: binds more weakly

Sequence: CAATTTAATGTAAAGTAGTTTACATTATTTAAC (double strand) [lmrCD operator 33 bp]
- binding result [2]: binds more weakly
- binding result [3]: binds more weakly
- Kd ([4]; 10 uM riboflavin): 220 nM

Sequence: TACATAGTAATGTGAAGTATAATATACTTTGTT (double strand) [lmrR operator 33 bp]
- binding result ([4]; value only in figure): binds

For at least one entry, the source does not settle the construct or the ends of the probe. For some assays here: The comparison behind a weaker result is the experiment's own reference, which may not be listed here. For some assays here: At least one verdict was read from the data and is not stated in words by the source.
